Assays:
ABCG4 transporter = molecular target: T1, ABCG4 transporter (Homo sapiens, UniProt Q9H172); assay: Dopamine-induced cytotoxicity (MTT assay) in hDAT cells transiently transfected with ABCG4, in the presence of ABC transporter inhibitors; assay type: cell-based; conditions: hDAT-SK-N-MC cells transfected with ABCG4, DA 50 μM for 24 hours, glipizide 250 μM or probenecid 500 μM added two hours prior to DA, FIG. 2
T1 construct: expressed in transfected cells; host or cells: hDAT-SK-N-MC (human neuroblastoma SK-N-MC stably expressing hDAT), transient transfection, pCEP4 or pcDNA3.1
Experimental: Constructs were prepared containing a polynucleotide sequence (SEQ ID NO:1) encoding ABCC5 transporter polypeptide (SEQ ID NO:2), a polynucleotide sequence (SEQ ID NO:3) encoding ABCG4 transporter polypeptide (SEQ ID NO:4), and polynucleotide sequences encoding two other ABC transporters, ABCx and ABCy.

By UniProt entry, the sequences of proteins in these tests, tags left out. Where a name states a change or a piece, a line headed by the entry shows the natural chain unless it says otherwise.
UniProt Q9H172, whole entry: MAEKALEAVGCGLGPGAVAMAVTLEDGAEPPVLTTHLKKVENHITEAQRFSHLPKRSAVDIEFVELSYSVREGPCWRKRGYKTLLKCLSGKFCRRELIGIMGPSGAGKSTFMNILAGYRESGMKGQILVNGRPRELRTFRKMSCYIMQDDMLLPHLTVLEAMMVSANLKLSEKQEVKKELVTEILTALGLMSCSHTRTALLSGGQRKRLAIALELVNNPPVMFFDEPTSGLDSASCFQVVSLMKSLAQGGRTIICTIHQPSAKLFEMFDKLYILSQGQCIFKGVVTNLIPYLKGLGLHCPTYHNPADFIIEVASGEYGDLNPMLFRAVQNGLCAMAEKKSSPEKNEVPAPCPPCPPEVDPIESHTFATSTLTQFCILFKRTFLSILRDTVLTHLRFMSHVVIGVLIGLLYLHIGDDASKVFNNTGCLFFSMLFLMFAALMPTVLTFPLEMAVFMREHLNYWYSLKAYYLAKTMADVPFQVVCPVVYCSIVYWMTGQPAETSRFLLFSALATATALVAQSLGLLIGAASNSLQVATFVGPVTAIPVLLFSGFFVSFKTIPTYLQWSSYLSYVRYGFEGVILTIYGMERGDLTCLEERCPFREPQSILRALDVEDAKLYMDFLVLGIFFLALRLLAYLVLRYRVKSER
UniProt O15440: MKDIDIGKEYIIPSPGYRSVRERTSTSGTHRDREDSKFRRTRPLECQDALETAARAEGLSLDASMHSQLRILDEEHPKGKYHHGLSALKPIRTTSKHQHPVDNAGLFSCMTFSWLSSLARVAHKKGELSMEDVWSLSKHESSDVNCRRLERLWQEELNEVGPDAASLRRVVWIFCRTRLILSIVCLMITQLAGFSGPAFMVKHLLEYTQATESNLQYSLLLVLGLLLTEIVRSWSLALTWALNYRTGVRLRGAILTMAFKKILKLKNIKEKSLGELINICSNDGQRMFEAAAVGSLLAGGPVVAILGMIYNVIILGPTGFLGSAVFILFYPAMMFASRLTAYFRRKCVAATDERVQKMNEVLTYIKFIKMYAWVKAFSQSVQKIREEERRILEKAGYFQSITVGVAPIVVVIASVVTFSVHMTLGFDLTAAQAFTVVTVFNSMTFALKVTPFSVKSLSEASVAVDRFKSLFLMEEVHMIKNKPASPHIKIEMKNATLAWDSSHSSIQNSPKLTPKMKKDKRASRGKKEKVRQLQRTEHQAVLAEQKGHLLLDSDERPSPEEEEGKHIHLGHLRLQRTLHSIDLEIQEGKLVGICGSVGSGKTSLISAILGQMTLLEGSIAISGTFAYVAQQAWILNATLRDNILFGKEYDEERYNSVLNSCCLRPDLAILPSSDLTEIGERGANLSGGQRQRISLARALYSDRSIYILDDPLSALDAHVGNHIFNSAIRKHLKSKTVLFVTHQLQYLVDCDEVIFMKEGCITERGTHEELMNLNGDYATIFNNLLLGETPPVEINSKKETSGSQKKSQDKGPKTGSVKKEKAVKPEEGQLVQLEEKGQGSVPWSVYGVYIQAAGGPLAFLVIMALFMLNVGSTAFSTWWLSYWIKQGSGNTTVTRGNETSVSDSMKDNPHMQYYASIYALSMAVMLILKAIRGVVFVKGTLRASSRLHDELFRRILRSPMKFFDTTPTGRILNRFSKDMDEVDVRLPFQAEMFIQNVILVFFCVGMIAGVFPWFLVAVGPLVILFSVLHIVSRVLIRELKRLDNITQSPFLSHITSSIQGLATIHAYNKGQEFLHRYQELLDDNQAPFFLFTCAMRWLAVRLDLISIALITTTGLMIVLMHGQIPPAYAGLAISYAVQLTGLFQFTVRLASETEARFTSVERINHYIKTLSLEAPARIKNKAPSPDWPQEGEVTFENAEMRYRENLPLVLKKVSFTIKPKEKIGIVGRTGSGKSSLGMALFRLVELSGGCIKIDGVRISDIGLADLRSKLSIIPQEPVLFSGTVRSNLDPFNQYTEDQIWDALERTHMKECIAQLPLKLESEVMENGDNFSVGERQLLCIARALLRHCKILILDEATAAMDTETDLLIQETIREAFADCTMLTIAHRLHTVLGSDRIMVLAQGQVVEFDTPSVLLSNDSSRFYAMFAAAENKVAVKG

ABCC5 transporter = ABCC5 transporter (Homo sapiens, UniProt O15440); conditions: hDAT-SK-N-MC cells transfected with ABCC5; DA 50 μM for 24 hours; glipizide 250 μM or probenecid 500 μM added two hours prior to DA; MTT; FIG. 2

Which results are given for `Cc1cnc(C(=O)NCCc2ccc(S(=O)(=O)NC(=O)NC3CCCCC3)cc2)cn1` [glipizide]?
effect on the protective effect of ABCG4 against dopamine-induced toxicity (ABCG4 transporter): reversed the protective effect; effect on the protective effect of ABCC5 against dopamine-induced toxicity (ABCC5 transporter): reversed the protective effect

From patent US20020192821A1, “Increased functional activity and/or expression of ABC transporters protects against the loss of dopamine neurons associated with Parkinson's disease” (Active Pass Pharmaceuticals, Inc., priority 2001, published 2002)
